Test results taken from PubChem BioAssay AID485314 (National Center for Advancing Translational Sciences (NCATS), 2010).
The campaign covered roughly 340,000 compounds. About 4,500 (1.3%) were called active. Inconclusive results, whose numbers are uncertain, are shown with a selection of clear calls. Calls come from the whole dose curve; as a rule, active = well fitted inhibition curve with a large enough effect; inconclusive = small, poorly fitted or top-dose-only effect, or another doubt; inactive = no such curve, though single readings can be large or run the other way. Where the call is inconclusive, the potency comes from a doubtful curve fit.

target: DNA polymerase beta (Homo sapiens) (UniProt P06746); assay: qHTS Assay for Inhibitors of DNA Polymerase Beta; conditions: Pol beta primer extension/strand displacement, fluorescence kinetic; activity change, negative = inhibition: at 114 µM (top of the series)
How it was run: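 Curves were derived by four-parameter Hill fits of normalized qHTS data. The kinetic fluorescent primer-extension read was taken at 0 and 10 min after 50 nM substrate, following a 15 min room-temperature preincubation of 10 nM enzyme with compounds.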
% is set by controls: 0 for no effect and ±100 for the full control effect; potency is the fitted concentration of half-maximal effect.

Potency, inactive:
Cn1c(=O)n(Cc2ccccc2Cl)c(=O)c2c1nc1n2CCN1c1ccccc1
CCOC(=O)C1(CCOc2ccccc2)CCN(Cc2cccc3nonc23)CC1
CC1=CC(c2ccccc2)n2nc(N3C(=O)CCC3=O)nc2N1 (stereo unspecified)
COc1cccc(CNC(=O)CSc2cc(C)[nH]c(=O)n2)c1
CCOc1ccccc1-c1noc(CSc2nnc(-c3ccncc3)n2-c2ccc(F)cc2)n1
Cc1cccc(NC(=O)CSc2ncc3c(n2)-c2cc(Cl)ccc2N(C)S3(=O)=O)c1C
O=C(O)c1ccc(S(=O)(=O)N2CCN(c3ccccn3)CC2)cc1
CC(C)CSC1=NSC2=NC(=O)/C(=C\c3ccccc3)C(=N)N12
Cc1cc(NC(=O)CS(=O)CC(=O)Nc2c(C)cccc2C)ccc1-n1cnnn1 (stereo unspecified)
Cc1c(-c2ccc(Cl)cc2)c(=O)oc2c(CN3CCN(C)CC3)c(O)ccc12
COc1ccc(C(=O)Nc2cc3c(cc2Cl)OCCCO3)cc1
O=C(N/N=C/C=C/c1cccc([N+](=O)[O-])c1)C(O)c1ccccc1 (stereo unspecified)
COc1cccc(CNC(=O)Cn2c(=O)cc(C(F)(F)F)c3c(C)nn(C)c32)c1OC
COc1c(C)cc(Br)cc1C(=O)Nc1cccc(NC(=O)c2ccco2)c1
CSC1CCCCC1(O)CSc1nc2c(cc1C#N)CCCC2 (stereo unspecified)
COc1ccc(NC(=O)c2cc(C)no2)cc1
COc1cc(N)c(Cl)cc1C(=O)OCCN1CCCCC1
CC(C)N(Cc1nccn1C)C(=O)c1cc(COc2ccc(F)cc2Cl)on1
Cc1c(C(=O)Nc2ccc3c(c2)OCCO3)sc2ncnc(N3CCCCC3C)c12 (stereo unspecified)
CCCCC(CC)CNC(=O)c1ccc(Cn2c(=O)[nH]c3cc(OC)c(OC)cc3c2=O)cc1 (stereo unspecified)
Cc1ccc(-n2c(=O)c3ccc(C(=O)NCc4ccccc4Cl)cc3n(Cc3cccc(F)c3)c2=O)cc1
O=[N+]([O-])c1cc(Cl)c(O)c2ncccc12
CCOC(=O)c1ccccc1NC(=O)c1ccc2nc[nH]c2c1

Potency, active:
Cc1ccccc1N1CC(C(=O)Nc2nnc(SCc3cccnc3)s2)CC1=O (stereo unspecified) 31.6 µM
N#C/C(=C/c1cccn1-c1cccc(C(=O)O)c1)c1ccc(Cl)cc1 8.91 µM
Cc1cc(/C=C2\SC(=O)N(C)C2=O)c(C)n1-c1cccc(C(=O)O)c1 28.2 µM
COc1ccc(-c2nn(C)c3sc(C(=O)Nc4cc(OC)c(OC)c(OC)c4)cc23)cc1OC 44.7 µM
CCOc1ccc(NC(=O)CN(C)S(=O)(=O)c2ccc(-c3ccc(=O)[nH]n3)s2)cc1 31.6 µM

Potency, inconclusive:
CN(C)S(=O)(=O)c1ccc(Cl)c(NC(=O)COC(=O)/C=C/c2ccco2)c1 14.1 µM [inhibitor, full curve]
COc1ccc(-c2noc(C(=O)NCc3ccc(F)cc3)n2)cc1OC 89.1 µM [inhibitor, single point]
Oc1ccc(O)c(Cc2nc3ccccc3s2)c1 70.8 µM [inhibitor, single point]
O=C(Nc1ccc2nc(-c3ccc(Br)o3)[nH]c2c1)c1ccco1 25.1 µM [inhibitor, full curve, poor fit]
COC(=O)c1ccc(C2c3c(-c4ccc(Br)cc4)n[nH]c3C(=O)N2c2ccc(Cl)cc2)cc1 (stereo unspecified) 89.1 µM [inhibitor, single point]
CSc1ccc(/C=N/NC(=O)c2cccc(Cl)c2)cc1 56.2 µM [inhibitor, partial curve]
Cc1ccc(C(=O)Nc2ccc(C(=O)N/N=C/c3ccc(C)o3)cc2)cc1 15.8 µM [inhibitor, full curve]
CC(=O)Nc1ccc(-c2nnc(SCC(=O)n3c4c(c5ccccc53)CCCC4)n2C)cc1 79.4 µM [inhibitor, single point]
COC(=O)c1cccc(NC(=O)c2cc3sccc3n2C)c1 28.2 µM [inhibitor, partial curve]
COc1ccc2c(c1)c(=O)oc1cc(OCC(=O)NC3CC3)ccc12 22.4 µM [inhibitor, full curve, poor fit]
Cc1sc(CO)c(Sc2ccccc2)c1C(=O)O 15.8 µM [inhibitor, full curve, poor fit]
O=C(c1ccc(Cn2cc(Br)cn2)o1)n1cccn1 63.1 µM [inhibitor, single point]
CC(C)Cc1nnc(NC(=O)Cc2cccs2)s1 0.316 µM [inhibitor, full curve, poor fit]
CCN(CC)S(=O)(=O)c1ccc(NC(=O)C2CCCN(C(=O)c3ccc(Cl)cc3)C2)cc1 (stereo unspecified) 89.1 µM [inhibitor, single point]
CCCN1CCC(=O)N(CCSc2ccc(NC(C)=O)cc2)CC1 89.1 µM [inhibitor, single point]
O=C(CN1CCC(C(=O)c2ccc(F)cc2)CC1)Nc1ccccc1Cl 0.141 µM [inhibitor, full curve, poor fit]
CCc1ncc(CN2CCCC(C(=O)Nc3cccc(-c4ccc(F)cc4)c3)C2)cn1 (stereo unspecified) 1.12 µM [inhibitor, full curve, poor fit]
CSCCC(NS(=O)(=O)c1ccccc1F)C(=O)N1CC=C(c2ccccc2)CC1 (stereo unspecified) 0.891 µM [inhibitor, full curve, poor fit]
CCOc1cc(/C=C2/SC(=S)NC2=O)ccc1OC(=O)c1ccco1 0.794 µM [inhibitor, full curve, poor fit]
O=C(N/N=C/c1ccoc1)c1ccc([N+](=O)[O-])cc1 15.8 µM [inhibitor, full curve]
Cc1ccc(Cl)cc1N1CCN(S(=O)(=O)c2c(C)[nH]c(=O)[nH]c2=O)CC1 39.8 µM [inhibitor, single point]
CC(C)OCCCNC(=O)CN1CCN(Cc2ccc(Cl)cc2)C1=O 3.55 µM [inhibitor, single point]
Cc1cccc2sc(N(Cc3cccnc3)C(=O)CCS(=O)(=O)c3ccccc3)nc12 79.4 µM [inhibitor, partial curve, poor fit]
COc1ccc(/C=N/NC(=O)c2cccnc2)c2ccccc12 63.1 µM [inhibitor, partial curve, poor fit]
Cc1nc2c(C)cccc2cc1C(=O)N/N=C/c1ccc(O)cc1 7.94 µM [inhibitor, full curve, poor fit]
COC(=O)c1nnn(-c2nonc2N)c1CSCCO 100 µM [inhibitor, single point]
O=C(O)c1ccccc1N/N=C/c1cc(Br)cc(Br)c1O 50.1 µM [inhibitor, single point]
COCCOC(=O)C1=C(C)NC(=O)NC1c1ccco1 (stereo unspecified) 7.94 µM [inhibitor, full curve]
O=C(/C=C/c1ccc(Br)o1)Nc1nccs1 10 µM [inhibitor, full curve]
Cc1ccc(CNC(=O)C2CCCN(c3nn4cc(-c5ccc(C)cc5)nc4s3)C2)cc1 (stereo unspecified) 89.1 µM [inhibitor, single point]
COc1ccnc(Oc2ccc(F)cc2)c1C(=O)N/C=N/OCc1c(Cl)cccc1Cl 79.4 µM [inhibitor, single point]
COc1cccc(N2CCN(C(=O)C3C4C=CC5(CN(Cc6ccccc6Cl)C(=O)C35)O4)CC2)c1 (stereo unspecified) 100 µM [inhibitor, single point]
COc1cc(CNc2ccccc2SC)ccc1O 39.8 µM [inhibitor, partial curve]
Cc1ccnc(NCc2ccc(Cl)cc2)c1 89.1 µM [inhibitor, single point]
COc1ccc(C(=O)NC(=S)Nc2nc(-c3ccc(OC)c(Br)c3)cs2)cc1Br 56.2 µM [inhibitor, partial curve, poor fit]
COc1cccc(NC(=O)C2CC(=O)N(c3ccc(Br)cc3)C2)c1 (stereo unspecified) 0.316 µM [inhibitor, partial curve]
CCOc1ccc(-n2cc(-c3ccccc3)c3c(NCc4ccccc4)ncnc32)cc1 89.1 µM [inhibitor, single point]
Cc1ccc(C(=O)OCC(=O)Nc2cccc(Cl)c2C)c(O)c1 39.8 µM [inhibitor, partial curve, poor fit]
NS(=O)(=O)c1ccc(NS(=O)(=O)c2ccc(NC(=O)c3ccc(-c4ccccc4)cc3)cc2)cc1 28.2 µM [inhibitor, partial curve]
O=C(c1cc(C2CC2)on1)N1CCN(c2ccc(F)cc2)CC1 14.1 µM [inhibitor, partial curve]
Cc1cc(C)c2c(C)c(C(=O)NCc3ccc(S(N)(=O)=O)cc3)oc2c1 44.7 µM [inhibitor, partial curve]

As a short view, some entries already given:
Potency, inconclusive:
O=C(/C=C/c1ccc(Br)o1)Nc1nccs1 10 µM [inhibitor, full curve]
Cc1ccc(CNC(=O)C2CCCN(c3nn4cc(-c5ccc(C)cc5)nc4s3)C2)cc1 (stereo unspecified) 89.1 µM [inhibitor, single point]

Following part.

Activity change, negative = inhibition, inconclusive:
CCCOc1ccc(C(=O)Nc2cc(-c3nc4ccccc4[nH]3)ccc2C)cc1 -35.4% [inhibitor]
COc1ccc(NC2CCCN(C(=O)CCc3ccncc3)C2)cc1OC (stereo unspecified) -34.6% [inhibitor]
